According to patent US9296710B2, “Bicyclo (3.1.0) hexane-2, 6-dicarboxylic acid derivatives as mGlu2 receptor agonist” (Eli Lilly and Company, priority 2011, dated 2016):

Target: T1, PepT1 (Homo sapiens, UniProt P46059)
T1 construct: expressed in transfected cells; host or cells: HeLa cells (ATCC), transient transfection with FUGENE6
T1 sequence (P46059 1-708): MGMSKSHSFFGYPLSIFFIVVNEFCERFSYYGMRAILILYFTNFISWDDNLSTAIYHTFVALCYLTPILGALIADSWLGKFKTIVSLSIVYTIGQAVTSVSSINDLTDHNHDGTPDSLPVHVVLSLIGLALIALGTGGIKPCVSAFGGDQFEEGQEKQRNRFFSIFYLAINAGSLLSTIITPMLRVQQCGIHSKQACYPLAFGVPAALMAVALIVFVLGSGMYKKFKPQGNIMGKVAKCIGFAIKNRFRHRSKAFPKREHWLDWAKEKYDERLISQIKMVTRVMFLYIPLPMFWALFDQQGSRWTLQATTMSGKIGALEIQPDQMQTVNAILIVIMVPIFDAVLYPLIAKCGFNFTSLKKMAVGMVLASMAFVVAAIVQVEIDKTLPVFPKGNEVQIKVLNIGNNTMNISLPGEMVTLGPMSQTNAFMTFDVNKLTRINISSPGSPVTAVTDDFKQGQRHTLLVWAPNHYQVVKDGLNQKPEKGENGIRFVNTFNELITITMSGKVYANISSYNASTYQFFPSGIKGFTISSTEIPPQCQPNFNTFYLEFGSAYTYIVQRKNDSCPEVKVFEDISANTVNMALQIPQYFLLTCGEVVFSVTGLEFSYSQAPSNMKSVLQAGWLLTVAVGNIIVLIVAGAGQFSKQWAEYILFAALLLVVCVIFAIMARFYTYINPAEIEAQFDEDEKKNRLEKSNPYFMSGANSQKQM
Test: In Vitro PepT1 GlySar Inhibition Screen
Format: cell-based
Details: negative and positive controls run in parallel, n=18-19
Protocol: PepT1 assays are established to examine the ability of the amino acid prodrug compounds to interact with the intestinal absorption transporter PepT1.
HeLa cells, derived from human cancer cells, (American Type Culture Collection) are grown in Hyclone Medium (Invitrogen, Cat# SH30243) containing 10% fetal bovine serum (FBS), 0.1 mM non essential amino acids (NEAA), and 100 units/mL penicillin with 100 μg/mL streptomycin at 37° C. in a 5% CO2 humidified atmosphere. The cell line is used for up to 40 passages and then discarded. Frozen cells in 1 mL vials are thawed in water bath for 1-2 minutes and added to 5 mL of cell medium at 37° C. Each of the T-flasks is provided with 8.5 mL of the fresh medium and 1.5 mL of the cell stock. Cells are passaged twice during a week. […] Cells are incubated at 37° C., until ready for the uptake study. […]
Inhibition of PEPT1-mediated [glycyl-1-2-^14C]Glyclysarcosine (GlySar) uptake activity is measured in the cells cultured in the 24-well plates 24-hours post transfection as previously published (Zhang et al. 2004. J. Pharm. Exper Ther. 310:437-445). […] A 200 μL aliquot is removed and radioactivity is determined by liquid scintillation counting to measure the [^14C]Gly-Sar present in each of the incubation wells. A no inhibitor control is established and the percent inhibition of each prodrug is calculated with respect to this control.

CC1=C(C(=O)O)N2C(=O)[C@@H](NC(=O)[C@H](N)c3ccccc3)[C@H]2SC1 [Cephalexin, reference compound]
GlySar uptake inhibition, mean values ± standard deviation (controls): 37.5±14.7%
